The values below come from paper doi:10.1101/2021.10.25.465663.

For this assay, the target named is PER^I530A protein, endogenously tagged with the V5 epitope (Drosophila melanogaster). Nature of the assay: co-IP.

Results are given in words; binding and its absence hold for the method and conditions named. Binding seen in cells or lysates may run through a third protein. Binding calls can cover weak binding; strength is not graded here.

B1: TIMELESS (TIM) (protein, UniProt P49021 1-1398)
chain: MDWLLATPQLYSAFSSLGCLEGDTYVVNPNALAILEEINYKLTYEDQTLRTFRRAIGFGQNVRSDLIPLLENAKDDAVLESVIRILVNLTVPVECLFSVDVMYRTDVGRHTIFELNKLLYTSKEAFTEARSTKSVVEYMKHILESDPKLSPHKCDQINNCLLLLRNILHIPETHAHCVMPMMQSMPHGISMQNTILWNLFIQSIDKLLLYLMTCPQRAFWGVTMVQLIALIYKDQHVSTLQKLLSLWFEASLSESSEDNESNTSPPKQGSGDSSPMLTSDPTSDSSDNGSNGRGMGGGMREGTAATLQEVSRKGQEYQNAMARVPADKPDGSEEASDMTGNDSEQPGSPEQSQPAGESMDDGDYEDQRHRQLNEHGEEDEDEDEVEEEEYLQLGPASEPLNLTQQPADKVNNTTNPTSSAPQGCLGNEPFKPPPPLPVRASTSAHAQMQKFNESSYASHVSAVKLGQKSPHAGQLQLTKGKCCPQKRECPSSQSELSDCGYGTQVENQESISTSSNDDDGPQGKPQHQKPPCNTKPRNKPRTIMSPMDKKELRRKKLVKRSKSSLINMKGLVQHTPTDDDISNLLKEFTVDFLLKGYSYLVEELHMQLLSNAKVPIDTSHFFWLVTYFLKFAAQLELDMEHIDTILTYDVLSYLTYEGVSLCEQLELNARQEGSDLKPYLRRMHLVVTAIREFLQAIDTYNKVTHLNEDDKAHLRQLQLQISEMSDLRCLFVLLLRRFNPSIHSKQYLQDLVVTNHILLLILDSSAKLGGCQTIRLSEHITQFATLEVMHYYGILLEDFNNNGEFVNDCIFTMMHHIGGDLGQIGVLFQPIILKTYSRIWEADYELCDDWSDLIEYVIHKFMNTPPKSPLTIPTTSLTEMTKEHNQEHTVCSWSQEEMDTLYWYYVQSKKNNDIVGKIVKLFSNNGNKLKTRISIIQQLLQQDIITLLEYDDLMKFEDAEYQRTLLTTPTSATTESGIEIKECAYGKPSDDVQILLDLIIKENKAQHLLWLQRILIECCFVKLTLRSGLKVPEGDHIMEPVAYHCICKQKSIPVVQWNNEQSTTMLYQPFVLLLHKLGIQLPADAGSIFARIPDYWTPETMYGLAKKLGPLDKLNLKFDASELEDATASSPSRYHHTGPRNSLSSVSSLDVDLGDTEELALIPEVDAAVEKAHAMASTPSPSEIFAVPKTKHCNSIIRYTPDPTPPVPNWLQLVMRSKCNHRTGPSGDPSDCIGSSSTTVDDEGFGKSISAATSQAASTSMSTVNPTTTLSLNMLNTFMGSHNENSSSSGCGGTVSSLSMVALMSTGAAGGGGNTSGLEMDVDASMKSSFERLEVNGSHFSRANNLDQEYSAMVASVYEKEKELNSDNVSLASDLTRMYVSDEDDRLERTEIRVPHYH
For B1, the binding entry is “binds”.
